Here are results for one molecule from patent publication US20250122255A1.

Assay [1] deals with PP4R3β, regulatory subunit of the protein phosphatase 4 (PP4) complex (human) (UniProt Q5MIZ7). As to the kind of experiment: co-immunoprecipitation, western blot.
Assay [2] addresses T1, PP4R3α, regulatory subunit of the protein phosphatase 4 (PP4) complex (human) (UniProt Q6IN85).
T1 sequence (looked up): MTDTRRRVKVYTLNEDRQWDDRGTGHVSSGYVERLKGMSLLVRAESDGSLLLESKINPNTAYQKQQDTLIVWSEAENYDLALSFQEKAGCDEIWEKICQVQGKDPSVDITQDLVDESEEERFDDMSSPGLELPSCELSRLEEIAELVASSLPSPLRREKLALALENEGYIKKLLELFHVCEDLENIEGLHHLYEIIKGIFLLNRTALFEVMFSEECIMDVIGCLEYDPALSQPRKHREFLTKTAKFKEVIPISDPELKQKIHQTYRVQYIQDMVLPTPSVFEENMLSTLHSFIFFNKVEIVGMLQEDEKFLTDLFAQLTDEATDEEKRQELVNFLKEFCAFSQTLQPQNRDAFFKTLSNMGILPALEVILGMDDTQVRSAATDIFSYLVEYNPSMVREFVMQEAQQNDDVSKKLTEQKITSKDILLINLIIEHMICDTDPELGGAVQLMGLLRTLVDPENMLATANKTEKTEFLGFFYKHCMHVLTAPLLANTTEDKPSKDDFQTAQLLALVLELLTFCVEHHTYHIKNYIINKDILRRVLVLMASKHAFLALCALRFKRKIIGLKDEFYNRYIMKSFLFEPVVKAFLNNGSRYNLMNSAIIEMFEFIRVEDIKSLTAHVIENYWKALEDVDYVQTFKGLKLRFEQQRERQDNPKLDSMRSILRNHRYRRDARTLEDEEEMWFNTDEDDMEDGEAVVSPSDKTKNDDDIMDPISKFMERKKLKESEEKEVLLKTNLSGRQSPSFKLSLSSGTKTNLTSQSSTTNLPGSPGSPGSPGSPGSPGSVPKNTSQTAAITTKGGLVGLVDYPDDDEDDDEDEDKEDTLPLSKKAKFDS
As to the kind of experiment: co-immunoprecipitation, western blot. In general terms: A western blot detects proteins with antibodies after separation by electrophoresis.

No constants are given. Whether binding was seen depends on the method and setting. Binding seen in cells or lysates may run through a third protein. Some binding calls cover weakened binding; strength is not graded here. Tags and fused reporters may be left off the sequences shown.

B1: C-terminally tagged CT45A5 (V5 tag) (protein, not shown: small tags and cut ends)
chain: MTDKTEKVAVDPETVFKRPRECDSPSYQKRQRMALLARKQGAGDSLIAGSAMSKEKKLMTGHAIPPSQLDSQIDDFTGFSKDGMMQKPGSNAPVGGNVTSSFSGDDLECRETASSPKSQREINADIKRKLVKELRCVGQKYEKIFEMLEGVQGPTAVRKRFFESIIKEAARCMRRDFVKHLKKKLKRMI
Turning to B1, the binding entry in assay [1] and in assay [2] was “binds” throughout.
